Measured values published in article PMC7862700.
The entries are a selection whose mix differs from that of the whole data set. For part of these data: At the low end of the ranking the order means little. The list shows a part of the results. For part of these data: The source does not settle which construct or isoform was used.

How the values were obtained:
Assay in all cases: DAPPL (digital affinity profiling via proximity ligation, sequencing)
Details in all cases: 10 mM Tris-HCl pH 7.5, 50 mM NaCl, 1 mM DTT, 4% glycerol, room temperature, 30 min; GST-TFs on glutathione beads, 16-mer random dsDNA library, 0.1% …; high values mean tight binding; double strand, one strand shown; scale: fold enrichment (6-mer frequency, TF over GST control)
GABPA = molecular target: T1, GABPA (UniProt Q06546)
T1 sequence: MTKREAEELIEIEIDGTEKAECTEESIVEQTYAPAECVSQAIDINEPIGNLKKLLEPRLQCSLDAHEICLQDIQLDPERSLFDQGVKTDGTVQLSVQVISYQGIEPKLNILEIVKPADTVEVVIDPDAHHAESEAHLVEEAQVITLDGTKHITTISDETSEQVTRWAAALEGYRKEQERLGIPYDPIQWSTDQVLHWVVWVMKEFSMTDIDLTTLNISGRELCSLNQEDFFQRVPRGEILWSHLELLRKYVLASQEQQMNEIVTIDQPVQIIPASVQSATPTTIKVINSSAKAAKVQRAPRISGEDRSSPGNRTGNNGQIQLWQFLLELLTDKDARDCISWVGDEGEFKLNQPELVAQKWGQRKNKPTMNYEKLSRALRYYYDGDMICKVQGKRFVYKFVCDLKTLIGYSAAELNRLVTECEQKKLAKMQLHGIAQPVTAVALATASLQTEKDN

ETS1 = molecular target: T2, ETS1 (UniProt P14921)
T2 sequence: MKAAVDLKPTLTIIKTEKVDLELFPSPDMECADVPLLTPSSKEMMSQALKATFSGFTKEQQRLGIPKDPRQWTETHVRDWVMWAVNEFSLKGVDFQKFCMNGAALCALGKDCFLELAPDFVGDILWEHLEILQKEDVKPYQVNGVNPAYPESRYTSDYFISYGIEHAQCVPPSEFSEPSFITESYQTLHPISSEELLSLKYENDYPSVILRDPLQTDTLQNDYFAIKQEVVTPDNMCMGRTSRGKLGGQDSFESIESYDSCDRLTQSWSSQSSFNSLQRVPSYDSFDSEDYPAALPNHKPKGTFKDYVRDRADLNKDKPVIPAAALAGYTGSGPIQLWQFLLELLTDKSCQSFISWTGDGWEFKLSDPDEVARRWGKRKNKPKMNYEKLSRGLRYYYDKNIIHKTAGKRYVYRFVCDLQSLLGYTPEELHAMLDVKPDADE

SPDEF = molecular target: T3, SPDEF (UniProt O95238)
T3 sequence: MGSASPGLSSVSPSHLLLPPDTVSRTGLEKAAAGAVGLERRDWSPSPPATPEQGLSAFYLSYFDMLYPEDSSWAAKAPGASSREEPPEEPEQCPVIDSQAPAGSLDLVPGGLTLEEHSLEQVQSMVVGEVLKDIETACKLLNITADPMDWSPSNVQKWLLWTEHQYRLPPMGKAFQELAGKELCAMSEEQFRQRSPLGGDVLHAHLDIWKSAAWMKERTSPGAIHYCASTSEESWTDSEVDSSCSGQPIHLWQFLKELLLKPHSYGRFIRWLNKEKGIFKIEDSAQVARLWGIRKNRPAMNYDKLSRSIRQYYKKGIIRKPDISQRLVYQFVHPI

Row | Sequence | binding signal (GABPA) | binding signal (ETS1) | binding signal (SPDEF)
1 | TGAGGG | 0.634 | 0.633 | 0.606
2 | GCTGAG | 0.68 | 0.738 | 0.582
3 | GCGTGT | 0.515 | 0.557 | 0.577
4 | GGGTCT | 0.92 | 1.06 | 1.01
5 | CGGCAG | 0.811 | 0.828 | 0.794
6 | TCAGGG | 0.778 | 0.779 | 0.707
7 | GGTGAC | 0.832 | 0.762 | 0.843
8 | CAGGTG | 0.644 | 0.575 | 0.537
9 | AGGGGA | 0.632 | 0.605 | 0.524
10 | AGTGAG | 0.266 | 0.247 | 0.245
11 | GCCGTT | 0.697 | 0.879 | 0.744
12 | CGGAGT | 0.311 | 0.313 | 0.327
13 | GCCGTG | 0.254 | 0.233 | 0.236
14 | CGTCGT | 0.786 | 1.04 | 0.766
15 | GAGGCA | 0.462 | 0.397 | 0.402
16 | TCGGAC | 0.379 | 0.358 | 0.357
17 | GCGGGG | 0.475 | 0.481 | 0.462
18 | CAATCG | 0.922 | 0.881 | 0.772
19 | AGTTGG | 0.486 | 0.466 | 0.449
20 | GCCGTA | 0.918 | 0.842 | 0.847
21 | ACGTGC | 0.692 | 0.749 | 0.701
22 | GTCGAG | 0.459 | 0.447 | 0.451
23 | CACCGT | 0.622 | 0.629 | 0.739

Row | Sequence | binding signal (GABPA) | binding signal (ETS1) | binding signal (SPDEF)
24 | ACGGTG | 0.552 | 0.527 | 0.496
25 | CGTGTA | 0.635 | 0.681 | 0.721
26 | GCGAGA | 0.547 | 0.531 | 0.475
27 | TGAGGC | 0.469 | 0.481 | 0.426
28 | TAGTCG | 0.499 | 0.446 | 0.48
29 | CCGTAG | 0.875 | 0.826 | 0.834
30 | CCAGGG | 0.627 | 0.566 | 0.561
31 | GAGCTA | 0.962 | 0.875 | 0.869
32 | GACCGT | 0.514 | 0.453 | 0.402
33 | GTGAGC | 0.371 | 0.411 | 0.394
34 | GGAGTG | 0.385 | 0.371 | 0.378
35 | ACGGGA | 0.542 | 0.577 | 0.514
36 | TAGGCG | 0.63 | 0.572 | 0.597
37 | CAGACG | 0.532 | 0.492 | 0.478
38 | CCAGCC | 0.686 | 0.756 | 0.792
39 | CCAGTA | 0.667 | 0.677 | 0.654
40 | ATCGGG | 0.482 | 0.479 | 0.457
41 | GTGGGC | 0.675 | 0.686 | 0.71
42 | GTGAGA | 0.323 | 0.306 | 0.297
43 | GGTAGT | 0.735 | 0.76 | 0.638
44 | GTGCAG | 0.725 | 0.757 | 0.771
45 | GAACGA | 0.72 | 0.76 | 0.679
46 | AGGCAT | 0.845 | 0.843 | 0.825

Shown as a markdown table: entries from further up.

| Row | Sequence | binding signal (GABPA) | binding signal (ETS1) | binding signal (SPDEF) |
| --- | --- | --- | --- | --- |
| 2 | GCTGAG | 0.68 | 0.738 | 0.582 |
| 5 | CGGCAG | 0.811 | 0.828 | 0.794 |
| 7 | GGTGAC | 0.832 | 0.762 | 0.843 |
| 8 | CAGGTG | 0.644 | 0.575 | 0.537 |
| 9 | AGGGGA | 0.632 | 0.605 | 0.524 |
| 11 | GCCGTT | 0.697 | 0.879 | 0.744 |
| 14 | CGTCGT | 0.786 | 1.04 | 0.766 |
| 16 | TCGGAC | 0.379 | 0.358 | 0.357 |
| 20 | GCCGTA | 0.918 | 0.842 | 0.847 |
| 21 | ACGTGC | 0.692 | 0.749 | 0.701 |
| 24 | ACGGTG | 0.552 | 0.527 | 0.496 |
| 26 | GCGAGA | 0.547 | 0.531 | 0.475 |
| 27 | TGAGGC | 0.469 | 0.481 | 0.426 |
| 31 | GAGCTA | 0.962 | 0.875 | 0.869 |
| 32 | GACCGT | 0.514 | 0.453 | 0.402 |
| 36 | TAGGCG | 0.63 | 0.572 | 0.597 |
| 37 | CAGACG | 0.532 | 0.492 | 0.478 |
| 38 | CCAGCC | 0.686 | 0.756 | 0.792 |
| 39 | CCAGTA | 0.667 | 0.677 | 0.654 |
| 41 | GTGGGC | 0.675 | 0.686 | 0.71 |
| 44 | GTGCAG | 0.725 | 0.757 | 0.771 |

Continuation:

Row | Sequence | binding signal (GABPA) | binding signal (ETS1) | binding signal (SPDEF)
47 | GGCCCA | 0.89 | 0.888 | 0.791
48 | AACAGT | 0.645 | 0.692 | 0.668
49 | AGTCAG | 0.482 | 0.487 | 0.45
50 | GTTAGT | 0.817 | 0.826 | 0.874
51 | CGGTCG | 0.404 | 0.386 | 0.384
52 | GCGAGT | 0.533 | 0.509 | 0.58
53 | CGTGGG | 0.404 | 0.371 | 0.317
54 | TGAGCA | 0.937 | 0.852 | 0.839
55 | ATCGAG | 0.862 | 0.855 | 0.823
56 | GTGATA | 0.729 | 0.674 | 0.712
57 | TCAGGA | 0.832 | 0.846 | 0.89
58 | TAGTGA | 0.567 | 0.56 | 0.573
59 | TCGGGG | 0.409 | 0.42 | 0.402
60 | GCGTCG | 0.767 | 0.794 | 0.721
61 | GGGTGC | 0.822 | 0.842 | 0.829
62 | AAGGAC | 0.906 | 0.854 | 0.885
63 | TAGGAG | 0.417 | 0.39 | 0.396
64 | GACCAT | 0.846 | 0.833 | 0.788
65 | GTGAAT | 0.872 | 0.834 | 0.771
66 | GGCGGA | 0.36 | 0.355 | 0.409
67 | ACAGGT | 0.75 | 0.776 | 0.827
68 | GGCGTG | 0.336 | 0.359 | 0.35
69 | AGGGAG | 0.342 | 0.375 | 0.297

Row | Sequence | binding signal (GABPA) | binding signal (ETS1) | binding signal (SPDEF)
70 | GTCGCG | 0.695 | 0.652 | 0.643
71 | CGGGCG | 0.434 | 0.366 | 0.464
72 | AAGTGA | 0.666 | 0.639 | 0.632
73 | CAGCGA | 0.811 | 0.934 | 0.861
74 | GCCGGT | 0.615 | 0.701 | 0.657
75 | GGTGGA | 0.608 | 0.638 | 0.545
76 | TTGGAC | 0.922 | 0.873 | 0.902
77 | ATCGTA | 0.843 | 0.808 | 0.874
78 | ACGTAG | 0.751 | 0.762 | 0.735
79 | GACGTC | 0.827 | 0.87 | 0.823
80 | GGAGAC | 0.14 | 0.14 | 0.14
81 | GACTGA | 0.811 | 0.813 | 0.84
82 | GAGTTT | 0.596 | 0.633 | 0.559
83 | GGCGGC | 0.551 | 0.625 | 0.437
84 | CGCAGC | 0.839 | 0.834 | 0.797
85 | CACGGT | 0.922 | 0.941 | 0.957
86 | GGCCAG | 0.491 | 0.425 | 0.448
87 | GAGATT | 0.742 | 0.668 | 0.676
88 | GAACAG | 0.94 | 0.933 | 0.946
89 | CGTCGG | 0.436 | 0.428 | 0.384
90 | GACGGA | 0.482 | 0.501 | 0.539
